Results as given in PMC7862700.
The list shows a part of the results, in another mix than the full data. At the low end of the ranking the order means little.

The sequences below were run against SPI1 (UniProt P17947) (assay: DAPPL (digital affinity profiling via proximity ligation, sequencing)). Settings: 10 mM Tris-HCl pH 7.5, 50 mM NaCl, 1 mM DTT, 4% glycerol, room temperature, 30 min; GST-TFs on glutathione beads, 16-mer random dsDNA library, 0.1% …; high values mean tight binding; double strand, one strand shown; scale: fold enrichment (6-mer frequency, TF over GST control).

Sequence	binding signal
GAACTT	1.74
GCCCCG	1.08
CATGGT	1.27
CTCACC	1.24
ACTCTG	1.26
GACGAC	0.976
ATCGCA	0.95
ACACCG	0.978
CCTGAA	1.35
CGAGCA	0.993
AGGAAC	1.45
CGACTG	1.04
TATGTC	1.06
GCACAC	0.927
TGCACA	1.05
CTGTGC	1.02
ACATAG	0.997
TATCTT	1.3
ACTTCG	1.44
GTGCTG	0.946

Taken from the listing for reference:
Sequence	binding signal
CGAGCA	0.993
AGGAAC	1.45
CGACTG	1.04

(next part)

Sequence	binding signal
TCGAAG	0.904
TCATAA	1.06
AAGGGC	0.946
GATAAC	0.928
CTGTCT	1.33
CACGCG	1.08
CATTCG	1.26
TAGCAT	1.07
GATAAG	0.861
ACCGCA	1.2
CAATAG	1.04
AGATGG	0.798
ACCATT	1.16
TCGAGC	0.938
CAGCAC	0.936
GATCAA	0.997
TCAAGA	0.886
CGAGGT	0.921
ACGGTA	0.916
